# Source: PubChem BioAssay AID504467 (National Center for Advancing Translational Sciences (NCATS), 2011)
# Screen size: about 330,000 compounds; about 7,700 (2.3%) were called active. Inconclusive means that the source gave no clear call. Such entries were picked first, then a sample of the others. Calls follow the shape of the dose curve; as a rule, active = well fitted inhibition curve with a large enough effect; inconclusive = small, poorly fitted or top-dose-only effect, or effect the other way; inactive = flat fitted curve, though single readings scatter. Potencies of inconclusive entries are doubtful fits and often do not repeat.
# Assay: qHTS screen for small molecules that inhibit ELG1-dependent DNA repair in human embryonic kidney (HEK293T) cells expressing luciferase-tagged ELG1; also: nearly all actives have a fitted effect of over 55% in size
# Conditions: HEK293T ELG1-luciferase reporter, luminescence, 16 h, DNA damage induced by 5-fluorouridine; activity change, negative = inhibition: at 46.1 µM (top of the series)
# How it was run: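 Reporter activity after DNA damage by 5-fluorouridine is monitored. Compound-treated cells incubate 16 hr at 37 °C, then ONE-Glo is added for 30 min before luminescence reading.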
# % is scaled to controls: 0 for no effect and ±100 for the full control effect; potency is read from the fitted curve at half-maximal effect.
Structure (SMILES),Potency,"activity change, negative = inhibition"
COc1cc(CCN2C(=O)c3cccc4cccc(c34)C2=O)c(S(=O)(=O)NCCCO)cc1OC,active: 5.8 µM,
COc1ccc(NC(=O)c2sc3nc(N4CCOCC4)c4c(c3c2N)CC(C(C)C)OC4)c(OC)c1 (stereo unspecified),inactive,
O=C(NNC(=O)c1ccccc1F)c1cccc(-n2cccc2)c1,"inconclusive: 25.9 µM [activator, single point]",
O=C(Nc1ccc(N2CCOCC2)c(Cl)c1)c1ncn[nH]1,"inconclusive: 14.6 µM [activator, partial curve]",
O=C(/C=C/c1ccc(Cl)cc1Cl)N1CCc2ccccc21,"inconclusive: 6.51 µM [activator, partial curve]",
Clc1ccc(-c2nnc(-c3ccccc3Cl)o2)cc1,"inconclusive: 2.31 µM [activator, full curve]",
C[C@@H]1C=C(C(=O)N2CCN(Cc3ccccc3)CC2)O[C@H](OCc2ccc(CO)cc2)C1,inactive,
Cc1ccc(-c2nc(C#N)c(NCCCn3ccnc3)o2)cc1,"inconclusive: 14.6 µM [activator, partial curve]",
Cc1cc(NC(=O)C2CCN(C(=O)c3ccco3)CC2)ccc1Br,,inconclusive: 28.8% [activator]
Cc1cccc2sc(N(CCCN(C)C)C(=O)CN3C(=O)c4ccccc4C3=O)nc12,inactive,
COc1ccccc1N=c1oc2c(OC)cccc2cc1C(=O)NCc1ccco1,inactive,
O=S(=O)(Nc1ncccc1O)c1ccc(Cl)cc1,"inconclusive: 9.2 µM [inhibitor, single point]",
Cc1ccc(NC(=O)C(C)Sc2nnc(-c3cccnc3)o2)cc1 (stereo unspecified),"inconclusive: 7.08 µM [activator, partial curve, poor fit]",
CCOc1ccccc1NC(=S)Nc1ccc(S(N)(=O)=O)cc1,inactive,
CC1CCC2(CC1)NC(=O)N(CC(=O)N1CC(C)CC(C)C1)C2=O (stereo unspecified),inactive,
O=C(COC(=O)C1C2CC3OC(=O)C1C3C2)Nc1cccc(C(F)(F)F)c1 (stereo unspecified),inactive,
COc1ccccc1/C=N/NC(=O)c1nnn(-c2nonc2N)c1CSC1=NCCS1,"inconclusive: 13 µM [inhibitor, partial curve, poor fit]",
CCC1CCc2sc(C(=O)NCC(c3ccc(OC)cc3)N3CCCC3)cc2C1 (stereo unspecified),inactive,
Cc1ccc(C)c(NC(=S)c2ccccn2)c1,"inconclusive: 18.4 µM [inhibitor, single point]",
CC(=O)Nc1cccc(/C(C)=N/NC(=O)c2ccc(Cl)cc2Cl)c1,"inconclusive: 32.6 µM [inhibitor, single point]",
CCc1ccc(-c2cc(C)no2)cc1S(=O)(=O)NCc1ccccc1OC,"inconclusive: 25.9 µM [inhibitor, single point]",
CCCC#Cc1ccc2c(c1)COc1c3ccccc3nn1-2,"inconclusive: 2.82 µM [activator, partial curve]",
O=C(OCc1nnc(-c2ccccc2)o1)c1ccc2c(c1)OCCO2,"inconclusive: 14.6 µM [activator, single point]",

Structure (SMILES),Potency,"activity change, negative = inhibition"
O=C1CN(C(=O)COC(=O)[C@@H]2CCCN2S(=O)(=O)c2ccc(Cl)cc2)c2ccccc2N1,inactive,
COc1ccc(C(C(=O)NC2CCCC2)N(C(=O)c2ccoc2C)c2ccccc2)cc1 (stereo unspecified),inactive,
COc1ccc(CNC(=O)C2CCCN2C)cc1OC (stereo unspecified),inactive,
Cc1cc(C)nc(SCc2csc(N)n2)n1,"inconclusive: 32.6 µM [activator, partial curve, poor fit]",
CCN(CC)CCN(Cc1cc2cc3c(cc2[nH]c1=O)OCCO3)C(=S)NCCCN(C)C,"inconclusive: 7.08 µM [inhibitor, partial curve, poor fit]",
O=C(Nc1ccc2c(c1)OCO2)N1CCCc2ccccc21,"inconclusive: 29.1 µM [activator, single point]",
O=[N+]([O-])c1ccc(COc2ccc(-c3[nH]ncc3-c3ccc(Cl)cc3)c(O)c2)cc1,"inconclusive: 23.1 µM [inhibitor, single point]",
COc1cc(C(=O)NC(=S)Nc2ccc3[nH]c(=O)[nH]c3c2)cc(OC)c1OC,inactive,
NS(=O)(=O)c1ccc(NC(=O)c2cc(Cl)sc2Cl)cc1,inactive,
Cc1ccc(Nc2nc(=O)c3cccnc3s2)c(Br)c1,inactive,
O=C(N/C=C/c1ccccc1)c1ccccc1,"inconclusive: 5.62 µM [activator, partial curve]",
Cc1ccc(Nc2nc(CSc3nnc(-c4ccc(F)cc4)n3C)cs2)cc1,"inconclusive: 7.31 µM [activator, partial curve]",
O=C(COc1ccccc1F)Nc1nc(-c2ccccn2)cs1,"inconclusive: 25.9 µM [inhibitor, partial curve, poor fit]",
CC1(c2cccc(Br)c2)NC(=O)N(CC(=O)Nc2ccc3c(c2)OCO3)C1=O (stereo unspecified),inactive,
O=C(Nc1ccc(N2CCCC2)cc1)c1cc([N+](=O)[O-])ccc1N1CCOCC1,"inconclusive: 9.2 µM [inhibitor, partial curve]",
CCCc1nc2ccccc2n1Cc1ccccc1OC,"inconclusive: 23.1 µM [inhibitor, single point]",
CC1CCc2cc(F)ccc2N1C(=O)c1ccc2c(c1)OCO2 (stereo unspecified),"inconclusive: 29.1 µM [inhibitor, single point]",
[N-]=[N+]=NCC/C=C\C1NS(=O)(=O)OCC1O (stereo unspecified),inactive,
CCn1c(=S)[nH]c2sc3c(c2c1=O)CCCC3,inactive,
CCOc1ccc(NC(=O)c2ccc(N3CC4CC(C3)c3cccc(=O)n3C4)c(NC(=O)c3ccncc3)c2)cc1 (stereo unspecified),"inconclusive: 8.2 µM [inhibitor, partial curve]",
C=C[C@]1(C)C[C@@H](OC(=O)CSCCN(CC)CC)[C@]2(C)C(C)CC[C@]3(CCC(=O)[C@H]32)[C@@H](C)[C@@H]1O (stereo partly specified),inactive,
Cc1cccc(-n2c(SCC(=O)NCc3ccc4c(c3)OCO4)nc3ccccc3c2=O)c1,"inconclusive: 20.6 µM [inhibitor, single point]",
COCC(=O)N(CCc1ccc(OC)c(OC)c1)Cc1cc2cc(C)ccc2nc1Cl,active: 16.4 µM,

# 3 compounds drawn at random from those above, as already listed:
Structure (SMILES),Potency,"activity change, negative = inhibition"
CCCc1nc2ccccc2n1Cc1ccccc1OC,"inconclusive: 23.1 µM [inhibitor, single point]",
O=C1CN(C(=O)COC(=O)[C@@H]2CCCN2S(=O)(=O)c2ccc(Cl)cc2)c2ccccc2N1,inactive,
COc1ccc(CNC(=O)C2CCCN2C)cc1OC (stereo unspecified),inactive,
